The source of these data is article PMC12784932, “Keratin 15 promotes a progenitor cell state in basal keratinocytes of skin epidermis” (The Journal of Cell Biology, 2026).

By UniProt entry, the sequences of proteins in these tests, tags left out. Where a name states a change or a piece, a line headed by the entry shows the natural chain unless it says otherwise.
UniProt P19012: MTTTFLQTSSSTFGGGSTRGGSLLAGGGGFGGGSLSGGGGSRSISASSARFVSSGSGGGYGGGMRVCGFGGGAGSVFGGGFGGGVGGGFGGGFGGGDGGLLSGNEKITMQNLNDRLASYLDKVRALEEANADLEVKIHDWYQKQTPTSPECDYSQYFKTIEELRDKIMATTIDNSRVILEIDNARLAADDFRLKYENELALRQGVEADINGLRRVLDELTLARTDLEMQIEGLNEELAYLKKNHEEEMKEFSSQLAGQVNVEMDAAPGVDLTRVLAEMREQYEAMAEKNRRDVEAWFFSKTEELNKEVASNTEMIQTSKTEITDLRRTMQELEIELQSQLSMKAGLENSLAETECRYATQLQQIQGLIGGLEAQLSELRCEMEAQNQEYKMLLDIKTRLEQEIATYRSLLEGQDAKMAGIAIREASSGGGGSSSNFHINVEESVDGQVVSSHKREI
UniProt P31947: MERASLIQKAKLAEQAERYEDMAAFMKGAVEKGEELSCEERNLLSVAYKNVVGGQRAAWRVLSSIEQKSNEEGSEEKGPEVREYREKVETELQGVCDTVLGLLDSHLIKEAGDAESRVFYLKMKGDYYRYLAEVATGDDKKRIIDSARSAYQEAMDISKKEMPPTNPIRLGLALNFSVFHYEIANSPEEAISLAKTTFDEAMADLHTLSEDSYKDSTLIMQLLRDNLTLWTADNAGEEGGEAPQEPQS

Results are given in words; binding and its absence hold for the method and conditions named. Binding seen in cells or lysates may run through a third protein. A result given as binding can be weak or reduced; the word gives no strength.

In the experiment the target is EGFP-K15 SCRAPS A351C (human) (UniProt P19012). Briefly: co-IP; GFP-Trap Magnetic Agarose (25 μl beads) on 600 μg lysate of HeLa cells cotransfected with untagged K5 and the EGFP-tagged keratin; lysis in 10 mM Tris/Cl pH 7.5, 150 mM NaCl, 0.5 mM EDTA, 0.5% Nonidet P-40 Substitute (detergent-soluble pool); 4°C, 1 h; western blot for endogenous 14-3-3σ; 14-3-3σ signal normalized to GFP. In general terms: Immunoblotting shows a protein as a band on a membrane.

In the case of “14-3-3σ (stratifin) (from UniProt P31947 1-248)”, the binding entry is given as “binds”.
